Holding throughout (test): co-IP; COS7 cells cotransfected; 1 mg lysate (50 mM Tris-HCl pH 7.4-7.5, 300 mM NaCl, 1% Triton X-100) on Anti-FlagM2 affinity gel overnight; Flag-tagged protein as bait; eluted by boiling in SDS lysis buffer, Western blot
Experiment [1] addresses T1, LOXL3-flag (murine lysyl oxidase-like 3) (mouse) (UniProt Q9Z175).
T1 sequence: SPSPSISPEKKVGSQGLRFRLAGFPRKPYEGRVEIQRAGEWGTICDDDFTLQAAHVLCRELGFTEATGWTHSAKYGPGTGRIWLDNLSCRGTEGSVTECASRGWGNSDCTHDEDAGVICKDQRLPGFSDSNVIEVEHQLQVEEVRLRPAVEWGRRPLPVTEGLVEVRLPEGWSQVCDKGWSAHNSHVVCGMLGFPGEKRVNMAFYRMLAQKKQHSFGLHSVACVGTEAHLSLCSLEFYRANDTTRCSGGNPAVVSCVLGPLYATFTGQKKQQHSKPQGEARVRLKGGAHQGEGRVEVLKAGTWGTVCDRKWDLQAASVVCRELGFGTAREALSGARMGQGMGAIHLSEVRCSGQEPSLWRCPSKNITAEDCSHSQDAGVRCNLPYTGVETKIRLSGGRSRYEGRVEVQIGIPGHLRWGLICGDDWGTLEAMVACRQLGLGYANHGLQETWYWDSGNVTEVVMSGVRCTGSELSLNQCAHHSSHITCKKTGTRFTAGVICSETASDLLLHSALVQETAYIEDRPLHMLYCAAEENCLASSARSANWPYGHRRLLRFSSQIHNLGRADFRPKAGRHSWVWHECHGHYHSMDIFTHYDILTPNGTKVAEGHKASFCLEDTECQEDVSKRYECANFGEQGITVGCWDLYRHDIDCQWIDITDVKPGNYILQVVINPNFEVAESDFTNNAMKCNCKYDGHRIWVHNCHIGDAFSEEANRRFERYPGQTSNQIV

The chains behind the UniProt entries cited, without tags or fusion partners. Where a name states a change or a piece, a line headed by the entry shows the natural chain unless it says otherwise.
UniProt P97873: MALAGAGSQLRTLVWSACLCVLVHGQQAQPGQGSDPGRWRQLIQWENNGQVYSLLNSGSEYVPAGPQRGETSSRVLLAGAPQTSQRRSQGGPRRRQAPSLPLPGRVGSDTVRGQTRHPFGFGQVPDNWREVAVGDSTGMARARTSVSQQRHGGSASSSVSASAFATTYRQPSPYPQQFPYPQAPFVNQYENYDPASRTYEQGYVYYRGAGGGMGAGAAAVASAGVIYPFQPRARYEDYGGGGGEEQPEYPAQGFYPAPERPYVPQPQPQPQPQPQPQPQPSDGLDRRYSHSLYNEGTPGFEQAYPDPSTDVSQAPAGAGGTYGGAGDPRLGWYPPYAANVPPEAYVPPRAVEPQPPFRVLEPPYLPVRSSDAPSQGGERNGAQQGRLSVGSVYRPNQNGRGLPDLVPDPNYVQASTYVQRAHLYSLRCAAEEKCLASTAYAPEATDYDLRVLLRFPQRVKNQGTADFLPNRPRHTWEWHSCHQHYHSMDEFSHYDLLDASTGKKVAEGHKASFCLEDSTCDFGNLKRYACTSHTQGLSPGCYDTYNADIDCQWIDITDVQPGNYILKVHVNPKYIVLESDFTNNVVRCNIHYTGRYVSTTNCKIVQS
UniProt P28301: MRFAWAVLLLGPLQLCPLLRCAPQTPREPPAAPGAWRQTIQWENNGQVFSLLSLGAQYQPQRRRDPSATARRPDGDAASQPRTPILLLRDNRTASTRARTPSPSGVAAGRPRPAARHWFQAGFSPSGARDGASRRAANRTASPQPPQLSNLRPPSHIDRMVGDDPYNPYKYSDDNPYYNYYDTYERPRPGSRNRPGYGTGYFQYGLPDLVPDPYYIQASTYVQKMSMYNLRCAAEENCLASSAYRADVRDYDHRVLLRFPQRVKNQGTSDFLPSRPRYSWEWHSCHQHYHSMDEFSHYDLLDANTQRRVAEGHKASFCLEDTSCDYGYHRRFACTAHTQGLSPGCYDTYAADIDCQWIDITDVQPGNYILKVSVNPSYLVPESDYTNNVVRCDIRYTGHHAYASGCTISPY

For experiment [2], the target named is T2, APMAP_E1-flag (Apmap_E1 in pFLAG-CMV-5.1) (mouse) (UniProt Q9D7N9).
T2 sequence: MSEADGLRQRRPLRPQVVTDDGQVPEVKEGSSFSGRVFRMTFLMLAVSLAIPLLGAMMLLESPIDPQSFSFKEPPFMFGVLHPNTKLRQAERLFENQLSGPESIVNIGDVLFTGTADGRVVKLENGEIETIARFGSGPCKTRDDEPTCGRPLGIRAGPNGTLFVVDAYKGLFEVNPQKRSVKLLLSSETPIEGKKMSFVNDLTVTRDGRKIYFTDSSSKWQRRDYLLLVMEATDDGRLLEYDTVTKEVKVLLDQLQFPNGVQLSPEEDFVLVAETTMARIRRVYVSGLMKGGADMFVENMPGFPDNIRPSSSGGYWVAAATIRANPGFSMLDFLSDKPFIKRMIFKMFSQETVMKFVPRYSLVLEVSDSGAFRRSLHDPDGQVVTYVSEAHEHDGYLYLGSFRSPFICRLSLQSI

Experiment [3] has as its target LOXL1-flag (murine lysyl oxidase-like 1) (mouse) (UniProt P97873).

No constants are given. Whether binding was seen depends on the method and setting. Binding seen in cells or lysates may run through a third protein. For part of these data: Binding calls can cover weak binding; strength is not graded here. Sequences can lack the tags named with a protein.

Consider “APMAP_E2, truncated APMAP variant (start codon in exon 2) (mouse)”, for which, in experiment [1], the binding result is given as “binds”. Take “His-LOX (lysyl oxidase in pcDNA4/HismaxC) (from UniProt P28301)”: the binding result in experiment [2] is “no binding”.

B1: His-tagged full-length murine APMAP_E1 (adipocyte plasma membrane-associated protein) (protein, UniProt Q9D7N9 1-415)
chain: T2 sequence
Consider B1, for which, in experiment [3], the binding entry is listed as “binds”.

For the origin of these results see paper PMC5566180.
